Laboratory results as given in the supplement of paper PMC10849652.
Some of the results follow.

The chains behind the UniProt entries cited, without tags or fusion partners. Where a name states a change or a piece, a line headed by the entry shows the natural chain unless it says otherwise.
UniProt Q3YEC7: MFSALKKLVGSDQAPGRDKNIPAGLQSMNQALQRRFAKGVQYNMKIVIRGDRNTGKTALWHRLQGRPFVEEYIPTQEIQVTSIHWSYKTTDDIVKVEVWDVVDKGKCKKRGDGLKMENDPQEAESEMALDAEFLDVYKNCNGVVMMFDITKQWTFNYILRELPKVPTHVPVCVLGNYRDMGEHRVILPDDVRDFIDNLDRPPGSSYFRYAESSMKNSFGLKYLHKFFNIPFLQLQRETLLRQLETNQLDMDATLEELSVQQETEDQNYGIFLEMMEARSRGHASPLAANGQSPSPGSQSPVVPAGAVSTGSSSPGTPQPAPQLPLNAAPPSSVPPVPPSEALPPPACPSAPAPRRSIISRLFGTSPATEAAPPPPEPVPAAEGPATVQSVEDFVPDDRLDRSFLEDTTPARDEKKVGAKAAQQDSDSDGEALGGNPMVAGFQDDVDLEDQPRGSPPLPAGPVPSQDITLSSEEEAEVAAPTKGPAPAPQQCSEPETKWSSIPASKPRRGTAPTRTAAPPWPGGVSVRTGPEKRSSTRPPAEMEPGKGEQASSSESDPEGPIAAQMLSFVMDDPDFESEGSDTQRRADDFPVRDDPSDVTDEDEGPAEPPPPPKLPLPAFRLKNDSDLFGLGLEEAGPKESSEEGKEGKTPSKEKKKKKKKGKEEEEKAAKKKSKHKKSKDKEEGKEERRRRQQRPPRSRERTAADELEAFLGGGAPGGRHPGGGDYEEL
UniProt Q96QF0: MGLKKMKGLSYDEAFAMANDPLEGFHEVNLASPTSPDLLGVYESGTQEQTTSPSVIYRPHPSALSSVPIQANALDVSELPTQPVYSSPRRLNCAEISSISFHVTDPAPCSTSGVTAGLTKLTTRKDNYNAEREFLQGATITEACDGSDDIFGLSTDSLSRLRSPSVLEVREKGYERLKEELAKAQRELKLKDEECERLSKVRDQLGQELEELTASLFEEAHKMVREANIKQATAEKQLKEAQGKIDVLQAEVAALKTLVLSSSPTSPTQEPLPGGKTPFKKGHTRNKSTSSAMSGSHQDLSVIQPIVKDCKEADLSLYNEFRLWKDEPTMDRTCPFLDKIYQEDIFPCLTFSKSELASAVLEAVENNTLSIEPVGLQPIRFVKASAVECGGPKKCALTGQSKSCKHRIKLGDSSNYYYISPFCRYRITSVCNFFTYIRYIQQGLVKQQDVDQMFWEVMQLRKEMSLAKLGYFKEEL
UniProt P62834: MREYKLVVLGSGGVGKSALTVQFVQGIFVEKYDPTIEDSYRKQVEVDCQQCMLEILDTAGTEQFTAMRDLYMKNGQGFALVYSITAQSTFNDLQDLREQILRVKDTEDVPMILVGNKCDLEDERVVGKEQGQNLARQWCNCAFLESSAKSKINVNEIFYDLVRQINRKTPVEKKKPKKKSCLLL
UniProt Q13636: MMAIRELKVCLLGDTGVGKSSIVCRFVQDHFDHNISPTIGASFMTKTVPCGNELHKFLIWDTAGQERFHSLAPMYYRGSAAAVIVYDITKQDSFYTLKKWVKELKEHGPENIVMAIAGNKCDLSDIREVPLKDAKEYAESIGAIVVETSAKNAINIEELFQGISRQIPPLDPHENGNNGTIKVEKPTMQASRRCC
UniProt P98175: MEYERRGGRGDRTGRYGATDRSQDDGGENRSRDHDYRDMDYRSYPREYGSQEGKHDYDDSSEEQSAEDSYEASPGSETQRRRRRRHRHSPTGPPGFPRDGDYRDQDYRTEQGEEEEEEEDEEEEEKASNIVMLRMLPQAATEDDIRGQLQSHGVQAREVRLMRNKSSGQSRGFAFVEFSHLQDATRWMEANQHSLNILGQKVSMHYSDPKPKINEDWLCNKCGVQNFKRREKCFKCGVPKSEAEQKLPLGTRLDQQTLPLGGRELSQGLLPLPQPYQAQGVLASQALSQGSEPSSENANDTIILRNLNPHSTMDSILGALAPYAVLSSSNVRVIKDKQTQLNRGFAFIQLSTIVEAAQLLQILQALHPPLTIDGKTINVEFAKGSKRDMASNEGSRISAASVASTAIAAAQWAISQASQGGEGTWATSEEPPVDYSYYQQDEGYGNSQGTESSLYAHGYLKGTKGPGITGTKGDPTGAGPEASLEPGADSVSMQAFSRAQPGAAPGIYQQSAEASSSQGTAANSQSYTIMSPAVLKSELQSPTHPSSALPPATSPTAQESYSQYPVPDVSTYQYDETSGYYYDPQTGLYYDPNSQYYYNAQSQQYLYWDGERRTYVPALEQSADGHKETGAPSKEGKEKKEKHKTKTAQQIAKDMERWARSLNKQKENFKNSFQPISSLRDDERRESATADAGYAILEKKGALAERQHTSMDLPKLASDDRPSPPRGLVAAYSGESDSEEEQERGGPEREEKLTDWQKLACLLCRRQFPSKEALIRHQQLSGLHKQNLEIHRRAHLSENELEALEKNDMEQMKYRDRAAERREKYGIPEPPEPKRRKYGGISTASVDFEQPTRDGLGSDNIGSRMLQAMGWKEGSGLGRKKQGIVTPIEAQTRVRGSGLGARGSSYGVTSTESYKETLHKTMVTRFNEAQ
UniProt P20338: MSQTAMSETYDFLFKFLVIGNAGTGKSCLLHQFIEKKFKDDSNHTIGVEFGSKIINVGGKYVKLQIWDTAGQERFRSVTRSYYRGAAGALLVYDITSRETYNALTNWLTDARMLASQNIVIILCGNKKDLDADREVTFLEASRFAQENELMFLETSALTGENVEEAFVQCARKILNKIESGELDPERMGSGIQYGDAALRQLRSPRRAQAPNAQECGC
UniProt Q9UJ41, whole entry, looked up: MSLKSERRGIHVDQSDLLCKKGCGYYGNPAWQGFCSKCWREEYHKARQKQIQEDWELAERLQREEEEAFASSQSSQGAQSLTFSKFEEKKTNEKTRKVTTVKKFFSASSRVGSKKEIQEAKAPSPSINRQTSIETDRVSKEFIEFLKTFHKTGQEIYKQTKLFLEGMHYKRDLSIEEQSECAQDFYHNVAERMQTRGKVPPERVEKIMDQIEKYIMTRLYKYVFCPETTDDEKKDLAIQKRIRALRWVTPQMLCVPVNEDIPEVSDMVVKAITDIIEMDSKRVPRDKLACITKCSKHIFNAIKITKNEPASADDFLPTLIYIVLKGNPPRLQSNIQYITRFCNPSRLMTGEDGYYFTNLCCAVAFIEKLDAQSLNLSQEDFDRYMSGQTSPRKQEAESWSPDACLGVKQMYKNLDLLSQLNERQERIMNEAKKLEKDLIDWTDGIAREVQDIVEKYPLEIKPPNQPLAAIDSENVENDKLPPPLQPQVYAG
UniProt Q15907: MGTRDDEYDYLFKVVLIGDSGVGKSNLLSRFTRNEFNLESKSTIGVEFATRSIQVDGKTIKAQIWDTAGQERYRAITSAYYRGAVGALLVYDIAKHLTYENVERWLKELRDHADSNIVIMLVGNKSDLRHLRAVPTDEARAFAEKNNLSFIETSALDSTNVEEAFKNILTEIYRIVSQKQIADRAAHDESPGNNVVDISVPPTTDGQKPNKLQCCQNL
UniProt P62491: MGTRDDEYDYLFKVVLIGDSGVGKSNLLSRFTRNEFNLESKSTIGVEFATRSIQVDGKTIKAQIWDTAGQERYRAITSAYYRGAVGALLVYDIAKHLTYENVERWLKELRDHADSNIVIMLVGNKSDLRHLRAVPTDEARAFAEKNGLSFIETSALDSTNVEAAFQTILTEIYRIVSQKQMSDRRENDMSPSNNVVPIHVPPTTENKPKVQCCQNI
UniProt P61026: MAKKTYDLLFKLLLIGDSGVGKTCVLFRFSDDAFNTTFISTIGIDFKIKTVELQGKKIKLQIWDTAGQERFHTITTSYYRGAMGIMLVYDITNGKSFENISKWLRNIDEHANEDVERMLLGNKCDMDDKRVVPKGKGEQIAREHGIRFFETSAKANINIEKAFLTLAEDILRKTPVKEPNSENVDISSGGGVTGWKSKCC
UniProt Q9UL25: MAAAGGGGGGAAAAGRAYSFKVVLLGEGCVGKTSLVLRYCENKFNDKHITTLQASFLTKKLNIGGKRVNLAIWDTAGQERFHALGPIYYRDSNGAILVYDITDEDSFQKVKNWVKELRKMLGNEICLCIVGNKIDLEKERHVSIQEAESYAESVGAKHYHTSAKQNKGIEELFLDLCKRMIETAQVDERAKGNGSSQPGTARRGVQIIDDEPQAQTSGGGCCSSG
UniProt P51159: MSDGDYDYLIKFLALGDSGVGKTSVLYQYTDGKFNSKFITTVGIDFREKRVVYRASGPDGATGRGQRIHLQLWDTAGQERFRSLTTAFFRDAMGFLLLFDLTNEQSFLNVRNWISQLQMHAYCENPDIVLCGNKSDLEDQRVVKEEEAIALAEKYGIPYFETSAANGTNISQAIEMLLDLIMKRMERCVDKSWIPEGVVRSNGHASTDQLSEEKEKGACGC
UniProt Q9UL26: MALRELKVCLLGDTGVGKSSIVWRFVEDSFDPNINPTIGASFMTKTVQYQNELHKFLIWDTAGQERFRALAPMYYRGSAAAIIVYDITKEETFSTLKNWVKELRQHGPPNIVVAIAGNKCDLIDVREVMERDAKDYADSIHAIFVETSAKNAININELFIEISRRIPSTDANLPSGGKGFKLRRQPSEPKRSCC
UniProt P53611: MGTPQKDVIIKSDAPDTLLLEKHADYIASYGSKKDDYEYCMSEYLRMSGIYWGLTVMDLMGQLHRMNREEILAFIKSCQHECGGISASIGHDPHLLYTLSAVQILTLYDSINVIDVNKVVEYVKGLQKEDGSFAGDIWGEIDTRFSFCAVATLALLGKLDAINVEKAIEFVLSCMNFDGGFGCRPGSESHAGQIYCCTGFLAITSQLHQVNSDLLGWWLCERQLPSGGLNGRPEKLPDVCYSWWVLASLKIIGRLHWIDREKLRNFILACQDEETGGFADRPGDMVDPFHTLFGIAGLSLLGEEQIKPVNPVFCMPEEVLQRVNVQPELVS
UniProt P61018: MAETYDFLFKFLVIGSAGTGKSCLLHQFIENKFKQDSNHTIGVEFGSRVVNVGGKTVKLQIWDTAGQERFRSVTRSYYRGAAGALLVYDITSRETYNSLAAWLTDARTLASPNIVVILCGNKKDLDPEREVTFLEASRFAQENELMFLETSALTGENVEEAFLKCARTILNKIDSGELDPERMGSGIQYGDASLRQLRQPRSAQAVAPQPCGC
UniProt P61006: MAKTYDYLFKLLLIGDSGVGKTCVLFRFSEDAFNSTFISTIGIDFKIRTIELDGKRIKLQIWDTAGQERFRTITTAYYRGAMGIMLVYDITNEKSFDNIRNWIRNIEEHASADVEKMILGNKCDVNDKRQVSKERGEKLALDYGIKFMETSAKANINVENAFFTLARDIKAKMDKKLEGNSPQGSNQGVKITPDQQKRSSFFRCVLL
UniProt O43251: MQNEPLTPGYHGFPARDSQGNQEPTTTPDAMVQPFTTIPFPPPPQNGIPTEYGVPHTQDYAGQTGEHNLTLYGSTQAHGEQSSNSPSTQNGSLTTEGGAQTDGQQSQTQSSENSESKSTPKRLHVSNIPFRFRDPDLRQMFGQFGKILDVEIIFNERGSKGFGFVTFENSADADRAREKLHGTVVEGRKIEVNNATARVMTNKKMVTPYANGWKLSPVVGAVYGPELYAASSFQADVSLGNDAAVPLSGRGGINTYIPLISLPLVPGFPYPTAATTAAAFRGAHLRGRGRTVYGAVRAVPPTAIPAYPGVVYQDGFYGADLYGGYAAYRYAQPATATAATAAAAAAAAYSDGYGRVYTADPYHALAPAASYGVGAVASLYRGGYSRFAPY
UniProt Q9UI14, whole entry, looked up: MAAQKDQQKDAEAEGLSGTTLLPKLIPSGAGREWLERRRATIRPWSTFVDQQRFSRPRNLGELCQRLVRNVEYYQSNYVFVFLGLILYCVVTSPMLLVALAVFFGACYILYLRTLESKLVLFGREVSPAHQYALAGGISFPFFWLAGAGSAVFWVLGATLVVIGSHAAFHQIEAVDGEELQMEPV
UniProt Q9H6Z4: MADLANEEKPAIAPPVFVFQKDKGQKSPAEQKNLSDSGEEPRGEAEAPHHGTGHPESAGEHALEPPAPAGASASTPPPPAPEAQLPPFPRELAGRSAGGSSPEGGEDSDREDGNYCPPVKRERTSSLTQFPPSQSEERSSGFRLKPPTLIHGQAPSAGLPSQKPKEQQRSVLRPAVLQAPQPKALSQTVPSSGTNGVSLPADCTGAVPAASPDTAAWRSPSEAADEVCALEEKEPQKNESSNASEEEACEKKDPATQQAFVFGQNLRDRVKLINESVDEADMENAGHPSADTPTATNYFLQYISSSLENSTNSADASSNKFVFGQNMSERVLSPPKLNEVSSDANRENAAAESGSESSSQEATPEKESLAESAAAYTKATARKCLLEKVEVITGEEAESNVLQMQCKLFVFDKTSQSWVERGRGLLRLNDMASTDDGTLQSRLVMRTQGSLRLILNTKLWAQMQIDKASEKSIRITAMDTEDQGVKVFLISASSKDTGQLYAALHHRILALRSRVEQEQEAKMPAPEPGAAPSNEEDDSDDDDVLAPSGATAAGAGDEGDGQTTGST

What was measured:
Assay in all cases: log2 fold change, soluble protein after heating vs DMSO (PISA); higher = thermal stabilisation; K562 cells, 10 uM, 30 min; active = over 0.2 and 3.5 SD of the protein, either way, in both replicates (recomputed)
[1] = compound: CC[C@@H]1C(=O)N(C)c2cnc(Nc3ccc(C(=O)NC4CCN(C)CC4)cc3OC)nc2N1C1CCCC1
In short: (§1)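 For each measurement, 10 μM compound was applied for 30 min to K562 cells at 2×10^6 cells/mL. Aliquots were heated for 3 min across 48°C-58°C, pooled, and extracted in PBS with 0.5% NP-40 at 4°C; the supernatant after 21,000xg for 90 min was soluble protein. This was quantified by TMTpro 16plex LC-MS/MS with channel sums equalised, and thermal stability was reported relative to control samples from duplicates, on a log2 fold-change scale.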

volasertib = compound: CC[C@@H]1C(=O)N(C)c2cnc(Nc3ccc(C(=O)N[C@H]4CC[C@H](N5CCN(CC6CC6)CC5)CC4)cc3OC)nc2N1C(C)C [volasertib]
In short: as §1

[2] = compound: CC[C@H](C)N1C=C(C2=C(C=C(C=C21)C3=CN=C(C=C3)N4CCNCC4)C(=O)NCC5=C(C=C(NC5=O)C)C)C
In short: as §1

epoxomicin = compound: CC[C@H](C)[C@@H](C(=O)N[C@@H]([C@@H](C)O)C(=O)N[C@@H](CC(C)C)C(=O)[C@]1(CO1)C)NC(=O)[C@H]([C@@H](C)CC)N(C)C(=O)C [epoxomicin]
In short: as §1

[3] = compound: CCn1c(C(=O)N(C2CC2)C2CC2)cc2c3c(ncn3C)c(Nc3cc(C)n(C)n3)nc21
In short: as §1

[4] = compound: CCn1cc(-c2ccnc3[nH]c(-c4cccc(CN(C)C)c4)cc23)c(-c2ccc(NC(=O)N(C)C)cc2)n1
In short: as §1

[5] = compound: CN(C)CC(=O)Nc1ccc2[nH]c(=O)c3ccccc3c2c1
In short: as §1

rosiglitazone = compound: CN(CCOC1=CC=C(C=C1)C[C@H]2C(=O)NC(=O)S2)C3=CC=CC=N3 (racemic) [rosiglitazone]
In short: as §1

[6] = compound: CN1C2=C(C3=C1C(=O)N(N=C3)CC4=CC(=CC=C4)N)SC(=C2)S(=O)C
In short: as §1

[7] = compound: CN1CCC(CNc2ccc3ncc(-c4cccc(OC(F)(F)F)c4)n3n2)CC1
In short: as §1

Measured: log2 fold change

RABL6 (UniProt Q3YEC7)
inactive: [1] 0.031 | volasertib 0.025 | [2] -0.008 | epoxomicin -0.019 | [3] 0.014 | [4] 0.067 | [5] -0.057 | rosiglitazone 0.005 | [6] -0.009 | [7] -0.069

RAB3IP (UniProt Q96QF0)
inactive: [1] -0.18 | volasertib -0.042 | [2] 0.075 | epoxomicin 0.116 | [3] 0.011 | [4] -0.006 | [5] -0.229 | rosiglitazone 0.051 | [6] -0.022 | [7] -0.007

RAD51AP1 (UniProt Q96B01)
inactive: [1] 0.104 | volasertib 0.002 | [2] -0.052 | epoxomicin 0.072 | [3] -0.003 | [4] -0.008 | [5] -0.03 | rosiglitazone -0.001 | [6] -0.053 | [7] -0.232

RAP1A (UniProt P62834)
inactive: [1] 0.026 | volasertib 0.029 | [2] 0.011 | epoxomicin 0.001 | [3] 0.026 | [4] -0.006 | [5] 0.01 | rosiglitazone -0.01 | [6] -0.101 | [7] 0.123

RASSF5 (UniProt Q8WWW0)
inactive: [1] 0.066 | volasertib 0.046 | [2] 0.047 | epoxomicin 0.047 | [3] -0.024 | [4] -0.077 | [5] -0.081 | rosiglitazone 0.042 | [6] 0.002 | [7] 0.018

RAB31 (UniProt Q13636)
inactive: [1] 0.03 | volasertib 0.036 | [2] -0.029 | epoxomicin 0.011 | [3] 0.037 | [4] -0.068 | [5] 0.018 | rosiglitazone 0.004 | [6] -0.073 | [7] -0.016

RAB3A (UniProt P20336)
inactive: [1] -0.052 | volasertib 0.083 | [2] 0.061 | epoxomicin 0.087 | [3] -0.017 | [4] -0.041 | [5] -0.003 | rosiglitazone 0.015 | [6] -0.046 | [7] 0.003

RBM10 isoform 5 (UniProt P98175)
inactive: [1] 0.044 | volasertib -0.18 | [2] 0.063 | epoxomicin -0.078 | [3] -0.028 | [4] -0.036 | [5] -0.143 | rosiglitazone 0.007 | [6] 0.176 | [7] 0.131

RAB6D (UniProt Q53S08)
inactive: [1] 0.04 | volasertib 0.001 | [2] -0.086 | epoxomicin -0.056 | [3] -0.014 | [4] -0.037 | [5] -0.017 | rosiglitazone 0.076 | [6] 0.044 | [7] 0.029

RAB12, A0A3B3ITT1
inactive: [1] 0.019 | volasertib -0.072 | [2] -0.048 | epoxomicin -0.019 | [3] 0.002 | [4] 0.048 | [5] -0.017 | rosiglitazone 0.006 | [6] -0.079 | [7] 0.004

RAB4A (UniProt P20338)
inactive: [1] 0.041 | volasertib 0.001 | [2] -0.001 | epoxomicin -0.053 | [3] 0 | [4] 0.021 | [5] -0.018 | rosiglitazone 0.013 | [6] -0.043 | [7] 0.027

RABGEF1 isoform 3 (UniProt Q9UJ41)
inactive: [1] 0.036 | volasertib -0.062 | [2] 0.027 | epoxomicin 0.066 | [3] 0.014 | [4] 0.03 | [5] -0.028 | rosiglitazone 0.012 | [6] 0.014 | [7] -0.059

RAB11B (UniProt Q15907)
inactive: [1] 0.052 | volasertib 0.09 | [2] -0.062 | epoxomicin 0 | [3] 0.03 | [4] 0.022 | [5] -0.062 | rosiglitazone -0.042 | [6] -0.035 | [7] 0.047

RAB11A (UniProt P62491)
inactive: [1] 0.066 | volasertib -0.005 | [2] -0.033 | epoxomicin 0.195 | [3] -0.026 | [4] 0.091 | [5] -0.054 | rosiglitazone -0.011 | [6] 0.084 | [7] -0.137

Fetched one by one from above, two records:
RAB11A (UniProt P62491)
inactive: [1] 0.066 | volasertib -0.005 | [2] -0.033 | epoxomicin 0.195 | [3] -0.026 | [4] 0.091 | [5] -0.054 | rosiglitazone -0.011 | [6] 0.084 | [7] -0.137

RAB6D (UniProt Q53S08)
inactive: [1] 0.04 | volasertib 0.001 | [2] -0.086 | epoxomicin -0.056 | [3] -0.014 | [4] -0.037 | [5] -0.017 | rosiglitazone 0.076 | [6] 0.044 | [7] 0.029

Remaining list, next part:

RAB10 (UniProt P61026)
inactive: [1] 0.069 | volasertib 0.018 | [2] -0.034 | epoxomicin -0.028 | [3] 0.05 | [4] -0.001 | [5] -0.011 | rosiglitazone 0.014 | [6] -0.064 | [7] 0.049

RAB21 (UniProt Q9UL25)
inactive: [1] 0.059 | volasertib 0.054 | [2] -0.028 | epoxomicin -0.075 | [3] 0.002 | [4] -0.002 | [5] 0.034 | rosiglitazone -0.002 | [6] -0.079 | [7] 0.005

RAB32 (UniProt Q13637)
inactive: [1] 0.025 | volasertib 0.035 | [2] -0.056 | epoxomicin -0.011 | [3] -0.023 | [4] 0.041 | [5] 0.01 | rosiglitazone 0.011 | [6] 0.103 | [7] 0.116

RAB27A (UniProt P51159)
inactive: [1] -0.003 | volasertib -0.051 | [2] -0.019 | epoxomicin -0.003 | [3] 0.012 | [4] 0.018 | [5] -0.001 | rosiglitazone -0.021 | [6] -0.062 | [7] -0.015

RAB22A (UniProt Q9UL26)
inactive: [1] 0.058 | volasertib 0.045 | [2] -0.056 | epoxomicin -0.031 | [3] 0.029 | [4] -0.074 | [5] -0.026 | rosiglitazone 0.003 | [6] -0.054 | [7] 0.037

RAC2 (UniProt P15153)
inactive: [1] 0.028 | volasertib 0.022 | [2] -0.049 | epoxomicin 0.031 | [3] 0.013 | [4] -0.006 | [5] -0.078 | rosiglitazone -0.019 | [6] -0.047 | [7] 0.11

RACK1 (UniProt D6RHH4)
inactive: [1] 0.083 | volasertib 0.075 | [2] 0.051 | epoxomicin -0.203 | [3] -0.14 | [4] 0.223 | [5] -0.054 | rosiglitazone 0.222 | [6] 0.01 | [7] -0.53

RABGGTB (UniProt P53611)
inactive: [1] -0.02 | volasertib -0.109 | [2] 0.008 | epoxomicin -0.017 | [3] -0.034 | [4] -0.04 | [5] -0.001 | rosiglitazone 0.069 | [6] -0.085 | [7] -0.009

RACK1 (UniProt P63244)
inactive: [1] 0.066 | volasertib 0.149 | [2] 0.046 | epoxomicin 0.033 | [3] 0.012 | [4] -0.07 | [5] 0.002 | rosiglitazone 0.01 | [6] -0.069 | [7] -0.027

RAB4B isoform 2 (UniProt P61018)
inactive: [1] 0.02 | volasertib 0.059 | [2] -0.039 | epoxomicin -0.045 | [3] 0.02 | [4] -0.007 | [5] -0.015 | rosiglitazone -0.01 | [6] -0.076 | [7] 0.07

RAB8A isoform 2 (UniProt P61006)
inactive: [1] 0.086 | volasertib 0.003 | [2] -0.026 | epoxomicin 0.003 | [3] 0.048 | [4] 0.006 | [5] -0.008 | rosiglitazone 0.018 | [6] -0.062 | [7] 0.106

RAB40C (UniProt Q96S21)
inactive: [1] -0.155 | volasertib -0.073 | [2] -0.03 | epoxomicin 0.11 | [3] 0.029 | [4] 0.229 | [5] 0.009 | rosiglitazone 0.011 | [6] 0.19 | [7] -0.186

RBFOX2 isoform 8 (UniProt O43251)
inactive: [1] -0.001 | volasertib -0.415 | [2] 0.057 | epoxomicin -0.023 | [3] -0.039 | [4] 0.126 | [5] -0.069 | rosiglitazone -0.028 | [6] -0.033 | [7] -0.004

RAB3C (UniProt Q96E17)
inactive: [1] 0.028 | volasertib 0.08 | [2] -0.013 | epoxomicin -0.019 | [3] 0.055 | [4] 0.049 | [5] -0.053 | rosiglitazone -0.035 | [6] -0.005 | [7] 0.071

RABAC1 (UniProt Q9UI14)
inactive: [1] -0.037 | volasertib 0.058 | [2] -0.092 | epoxomicin -0.077 | [3] 0.106 | [4] -0.095 | [5] -0.075 | rosiglitazone -0.003 | [6] 0.034 | [7] 0.07

RANBP3 (UniProt Q9H6Z4)
inactive: [1] -0.006 | volasertib 0.037 | [2] -0.009 | epoxomicin 0.032 | [3] 0.022 | [4] -0.032 | [5] 0.005 | rosiglitazone 0.006 | [6] -0.067 | [7] -0.036
